For at least one compound, name, drawing or mass did not settle the structure.
Tested on: PKC
Assay: cell-free PKC binding assay, isoform not given
Design: species or system human
Method: Because a prerequisite for PKC pathway involvement is binding to PKC, compounds were initially evaluated for PKC affinity in a cell-free competitive binding assay with tritiated phorbol dibutyrate ([^3H]-PDBu). Assays were performed with representative members of both the conventional (PKCα) and novel (PKCδ) PKC families. Subsequently, compounds were assayed for PKC activation in living cells using an isoform translocation assay.
Assay PKC was prepared by dissolving a 4 μg aliquot of the indicated recombinant human PKC isoform (Invitrogen) into 11.6 mL of PKC binding assay buffer (this amount is sufficient for two assays). The diluted PKC was stored on ice for immediate use.
Triplicate data points were obtained for each analog concentration. […] Maximal ^3H-PDBu binding was assessed in triplicate by substitution of the analog compound with 20 μL DMSO. […] Scintillation vials were filled with Bio-Safe II scintillation fluid (5 mL) and measured for radioactivity using a Beckman LS 6000SC scintillation counter. […] The data were plotted—cpm vs. log(concentration)—using Prism® by GraphPad Software and an IC50 was determined using that program's built-in one-site competition least squares regression function. Ki values were calculated using the equation: Ki=IC50/(1+([3H−PDBu]/Kd)). The Kd of ^3H-PDBu for PKC isoforms was measured separately via saturation binding experiments under identical conditions.

CCCCCC#CC(=O)O[C@H]1/C(=C/C(=O)OC)C[C@H]2C[C@H]([C@@H](C)O)OC(=O)C[C@H](O)C[C@@H]3C[C@H](OC(C)=O)C(C)(C)[C@](O)(C[C@@H]4C[C@H](O)C[C@H](/C=C/C(C)(C)[C@]1(O)O2)O4)O3 [SUW204]
binding affinity to PKC, in words: single-digit nanomolar affinity
